Assay results from patent US20050272050A1 (published 2005).
These are yes or no findings as the source states them, for the method shown. Some entries that bind do so weakly or less than the wild type.

By UniProt entry, the sequences of proteins in these tests, tags left out. Residues count along the entry.
UniProt P29965, residues 116-261: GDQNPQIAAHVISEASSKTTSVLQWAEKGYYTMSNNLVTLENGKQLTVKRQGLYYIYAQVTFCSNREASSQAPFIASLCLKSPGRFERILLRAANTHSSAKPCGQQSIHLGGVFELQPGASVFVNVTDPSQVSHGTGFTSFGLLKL

Columns and labels:
[1] = target: CD154 ligand (ALX-522-015) (UniProt P29965); assay: competition ELISA on plate-held CD154
[2] = target: CD154 ligand (ALX-522-015) (UniProt P29965); assay: competition ELISA on plate-held CD154, competitor of biotinylated WT CD40
[3] = target: CD154 ligand (ALX-522-015) (UniProt P29965); assay: ELISA, CD40 variant bound to the plate, biotinylated CD154 added, dose-response
[4] = target: CD154 ligand (ALX-522-015) (UniProt P29965); assay: competition ELISA on plate-held CD154 (figure legend)

Measured: binding

B1: CD40 NJ1 splice variant (receptor)
chain: EPPTACREKQYLINSQCCSLCQPGQKLVSDCTEFTETECLPCGESEFLDTWNRETHCHQHKYCDPNLGLRVQQKGTSETDTICTCEEGWHCTSEACESCVLHRSCSPGFGVKQIATGVSDTICEPCPVGFFSNVSSAFEKCHPWTSCETKDLVVQQAGTNKTDVVCGESWTMGPGESLGRWELKGEMRHTGTLDGKKGRGGSLGVWYHSSATYLGSLGKSLPLS
notes: For ELISA and FACS it was expressed non-fused with baculovirus, secreted and purified from the supernatant on a G28-5 column; also called CD40 NJ1 variant; CD40 variant NJ1
binds: [1] | [2] | [3] | [4]

B2: CD40 NJ3 splice variant (receptor)
chain: EPPTACREKQYLINSQCCSLCQPGQKLVSDCTEFTETECLPCGESEFLDTWNRETHCHQHKYCDPNLGLRVQQKGTSETDTICTCEEGWHCTSEACESCVLHRSCSPGFGVKQIATGVSDTICEPCPVGFFSNVSSAFEKCHPWTSCETKDLVVQQAGTNKTDVVCGESWTMGPGESLGRSPGSAESPGGDPHHLRDPVCHPLGAGLYQKGGQEANQ
notes: For ELISA and FACS it was expressed non-fused with baculovirus, secreted and purified from the supernatant on a G28-5 column; also called CD40 NJ3 variant; CD40 variant NJ3
binds: [2] | [4]
